Data as given in PubChem BioAssay AID1671195 (Yale University, 2021).
Screen: 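Knockdowns that increase or decrease uptake of fluorescent LDL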 (primary screen). Cells: human Huh7 hepatoma cells. Reagents: siRNA pool against human genes, 18 nM. Duration: about 2 to 2.5 days of knockdown, then 8 h LDL uptake. Conditions: DiI-labelled LDL at 30 µg/ml for 8 h, in lipoprotein-deficient serum medium. Read-out: 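Fluorescent LDL signal imaged in cells, scaled to the plate median, robust z-score for each replicate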. Direction: robust z-score: higher = more LDL uptake after knockdown. Hit rule: 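Active when two or more replicates show a robust z-score above 2 or below -2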.
Shown is one part, drawn at random, of about 22,000 deposited reagents. Of all reagents, about 1,510 (6.9%) were called active. 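Active includes knockdowns raising or lowering LDL uptake; positive z-scores mean more uptake, negative mean less.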 Entries without a mark were called inactive. Reagent sequences are not shown.

Gene	robust z-score, replicate 1	robust z-score, replicate 2	robust z-score, replicate 3
LAMP3 (GeneID 27074)	-1.46	-0.456	-1.56
GSTM5P1 (GeneID 2945)	1.42	-0.476	-0.245
PPP2R2D (GeneID 55844)	-0.83	-1.09	-1.49
LOC399921 (retired record) (GeneID 399921)	0.935	0.583	0.353
KRT24 (GeneID 192666)	0.76	0.27	0.466
ADAMTS4 (GeneID 9507)	0.0674	0.179	0.163
LOC441018 (retired record) (GeneID 441018)	0.332	0.557	0.412
LOC391669 (retired record) (GeneID 391669)	2.86 (active)	2.67	3.34
AK7 (GeneID 122481)	-0.846	-1.47	-1.22
AFF4 (GeneID 27125)	-0.535	1.79	0.583
ENTREP1 (GeneID 9413)	-0.448	1.53	-0.161
FGFBP2 (GeneID 83888)	-1.14	-1.11	-1.78
RAB1B (GeneID 81876)	-0.19	-1.56	-1.36
MAPKAPK3 (GeneID 7867)	-0.449	-0.308	0.0638
LOC441806 (GeneID 441806)	-0.355	0.379	-0.0787
FKTN (GeneID 2218)	-0.695	0.912	0.19
UBR7 (GeneID 55148)	0.141	0.325	0.0294
KCTD2 (GeneID 23510)	-0.784	-1.81	-0.425
SOCS6 (GeneID 9306)	-1.59	-1.27	-1.65
FGF4 (GeneID 2249)	-1.57	-0.662	-0.965
AMT (GeneID 275)	0.261	0.156	-0.183
GTF2H2 (GeneID 2966)	-0.0909	-0.111	-0.127
LINC03103 (GeneID 100507527)	-0.909	-1.06	-0.801
HSD17B4 (GeneID 3295)	0.253	0.938	0.407
GPAA1 (GeneID 8733)	-1.04	1.5	0.222
DUSP14 (GeneID 11072)	0.00936	0.45	-0.18
LOC439993 (retired record) (GeneID 439993)	-0.397	0.0182	-0.736
APOF (GeneID 319)	-1.73	-1.91	-1.8
OR10AD1 (GeneID 121275)	0.938	0.404	-0.219
ASAP1 (GeneID 50807)	-0.428	-0.488	-0.208
TSHZ2 (GeneID 128553)	-1.6	-1.71	-1.48
LOC401477 (retired record) (GeneID 401477)	0.815	0.233	1.6
RXRG (GeneID 6258)	2.12 (active)	2.33	2.26
STPG2 (GeneID 285555)	-0.464	-0.739	-0.0465
TMEM222 (GeneID 84065)	-0.701	-1.19	-0.505
LOC388274 (retired record) (GeneID 388274)	0.167	0.216	0.608
EMSY (GeneID 56946)	-2.36	-1.74	-1.5
SAR1A (GeneID 56681)	-0.799	1.13	0.109
KDELR2 (GeneID 11014)	-0.33	0.367	0.174
LOC391783 (retired record) (GeneID 391783)	0.431	1.17	1.56
NBPF13P (GeneID 644861)	-0.334	-0.45	-0.204
SCML2 (GeneID 10389)	-1.45	-1.44	0.21
ATP5MF (GeneID 9551)	-1.3	-0.907	-0.714
HCN3 (GeneID 57657)	-0.113	-0.112	-0.315
LCE3D (GeneID 84648)	-0.156	-0.0102	0.203
TNIK (GeneID 23043)	-0.795	-0.668	-0.874
PDE1C (GeneID 5137)	3.09	0.339	1.4
REL-DT (GeneID 400957)	1.27	1.67	2.22
LINC00305 (GeneID 221241)	-0.257	-0.65	-0.457
PMS2 (GeneID 5395)	1.54 (active)	2.12	2.53
ARNT2 (GeneID 9915)	-0.105	-0.0555	-0.0512
AMIGO3 (GeneID 386724)	-0.405	-0.445	-0.0301
METTL1 (GeneID 4234)	0.363	2.72	1.33
LOC653303 (GeneID 653303)	-0.832	-1.25	-1.2
ELFN2 (GeneID 114794)	-0.0771	-1.34	-0.684
HSD11B1L (GeneID 374875)	1.04	-0.649	0.0512
ZIC2 (GeneID 7546)	-0.986	-1.23	-1.12
ZNF807P (GeneID 100129800)	-1.21	-0.839	-1.16
CASTOR1 (GeneID 652968)	0.355	-0.278	-1.6
OPRD1 (GeneID 4985)	-0.537	-0.16	-0.15
LOC441754 (retired record) (GeneID 441754)	1.03	0.497	0.634
INPP5J (GeneID 27124)	0.887	1.32	1.52
DAO (GeneID 1610)	-0.618	-0.0299	-0.551
LOC123397 (retired record) (GeneID 123397)	0.398	0.352	-0.704
SLC7A14 (GeneID 57709)	-1.05	-0.837	-1.05
SPECC1L (GeneID 23384)	0.241	1.93	-0.439
NUDT15 (GeneID 55270)	-0.0484	1.1	0.425
VASN (GeneID 114990)	-0.705	-0.882	-0.774

Not a retest: entries from further up.
Gene	robust z-score, replicate 1	robust z-score, replicate 2	robust z-score, replicate 3
FGFBP2 (GeneID 83888)	-1.14	-1.11	-1.78
RAB1B (GeneID 81876)	-0.19	-1.56	-1.36
MAPKAPK3 (GeneID 7867)	-0.449	-0.308	0.0638
LOC441806 (GeneID 441806)	-0.355	0.379	-0.0787
